Laboratory results from the supplement of paper PMC8612539.
Values after ≈ are worked out from the molar mass of the structure shown. This continues a long series; more values of the same kind are listed elsewhere.

Tested on: Pasteurella multocida
Test: minimum inhibitory concentration (MIC)
Protocol: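 Broth microdilution MIC (Sensititre BOPO7F bovine plate, CLSI methods) of 19 antimicrobials against field isolates of P. multocida, M. haemolytica, H. somni (deep nasopharyngeal swabs) and E. coli, Enterococcus spp. (rectal swabs) from weaned dairy heifers. Incubation 16-24 h at 35 C. MIC is the lowest concentration preventing visible growth. Values with <= or > lie at the tested range limits. Trimethoprim-sulfamethoxazole is given as the trimethoprim component of a 1:19 mixture.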

CC1(C)S[C@@H]2[C@H](NC(=O)[C@H](N)c3ccccc3)C(=O)N2[C@H]1C(=O)O [Ampicillin]
Conditions | minimum inhibitory concentration [µg/mL]
isolate (source animal id): 30 | ≤ 0.25
isolate (source animal id): 34 | ≤ 0.25
isolate (source animal id): 36 | ≤ 0.25
isolate (source animal id): 37 | ≤ 0.25
isolate (source animal id): 46 | ≤ 0.25
isolate (source animal id): 48 | ≤ 0.25
isolate (source animal id): 49 | ≤ 0.25
isolate (source animal id): 54 | ≤ 0.25
isolate (source animal id): 55 | ≤ 0.25
isolate (source animal id): 58 | ≤ 0.25
isolate (source animal id): 60 | ≤ 0.25
isolate (source animal id): 61 | 16 (≈ 45.8 µM)
isolate (source animal id): 63 | ≤ 0.25
isolate (source animal id): 64 | ≤ 0.25
isolate (source animal id): 65 | 16 (≈ 45.8 µM)
isolate (source animal id): 66 | ≤ 0.25
isolate (source animal id): 67 | ≤ 0.25
isolate (source animal id): 69 | ≤ 0.25
isolate (source animal id): 73 | ≤ 0.25
isolate (source animal id): 75 | ≤ 0.25
isolate (source animal id): 76 | ≤ 0.25
isolate (source animal id): 77 | ≤ 0.25
isolate (source animal id): 78 | ≤ 0.25
isolate (source animal id): 80 | ≤ 0.25
isolate (source animal id): 82 | ≤ 0.25
isolate (source animal id): 83 | ≤ 0.25
isolate (source animal id): 88 | ≤ 0.25
isolate (source animal id): 92 | ≤ 0.25
isolate (source animal id): 94 | ≤ 0.25
isolate (source animal id): 318 | ≤ 0.25
isolate (source animal id): 319 | ≤ 0.25
isolate (source animal id): 320 | ≤ 0.25
isolate (source animal id): 321 | ≤ 0.25
isolate (source animal id): 322 | ≤ 0.25
isolate (source animal id): 324 | ≤ 0.25
isolate (source animal id): 325 | ≤ 0.25
isolate (source animal id): 328 | ≤ 0.25
isolate (source animal id): 330 | ≤ 0.25
isolate (source animal id): 331 | ≤ 0.25
isolate (source animal id): 333 | ≤ 0.25
isolate (source animal id): 336 | ≤ 0.25
isolate (source animal id): 337 | ≤ 0.25
isolate (source animal id): 339 | 0.5 (≈ 1.43 µM)
isolate (source animal id): 340 | ≤ 0.25
isolate (source animal id): 341 | ≤ 0.25

CO/N=C(\C(=O)N[C@@H]1C(=O)N2C(C(=O)O)=C(CSC(=O)c3ccco3)CS[C@H]12)c1csc(N)n1 [Ceftiofur]
Conditions | minimum inhibitory concentration [µg/mL]
isolate (source animal id): 30 | ≤ 0.25
isolate (source animal id): 34 | ≤ 0.25
isolate (source animal id): 36 | ≤ 0.25
isolate (source animal id): 37 | ≤ 0.25
isolate (source animal id): 46 | ≤ 0.25
isolate (source animal id): 48 | ≤ 0.25
isolate (source animal id): 49 | ≤ 0.25
isolate (source animal id): 54 | ≤ 0.25
isolate (source animal id): 55 | ≤ 0.25
isolate (source animal id): 58 | ≤ 0.25
isolate (source animal id): 60 | ≤ 0.25
isolate (source animal id): 61 | ≤ 0.25
isolate (source animal id): 63 | ≤ 0.25
isolate (source animal id): 64 | ≤ 0.25
isolate (source animal id): 65 | ≤ 0.25
isolate (source animal id): 66 | ≤ 0.25
isolate (source animal id): 67 | ≤ 0.25
isolate (source animal id): 69 | ≤ 0.25
isolate (source animal id): 73 | ≤ 0.25
isolate (source animal id): 75 | ≤ 0.25
isolate (source animal id): 76 | ≤ 0.25
isolate (source animal id): 77 | ≤ 0.25
isolate (source animal id): 78 | ≤ 0.25
isolate (source animal id): 80 | ≤ 0.25
isolate (source animal id): 82 | ≤ 0.25
isolate (source animal id): 83 | ≤ 0.25
isolate (source animal id): 88 | ≤ 0.25
isolate (source animal id): 92 | ≤ 0.25
isolate (source animal id): 94 | ≤ 0.25
isolate (source animal id): 318 | ≤ 0.25
isolate (source animal id): 319 | ≤ 0.25
isolate (source animal id): 320 | ≤ 0.25
isolate (source animal id): 321 | ≤ 0.25
isolate (source animal id): 322 | ≤ 0.25
isolate (source animal id): 324 | ≤ 0.25
isolate (source animal id): 325 | ≤ 0.25
isolate (source animal id): 328 | ≤ 0.25
isolate (source animal id): 330 | ≤ 0.25
isolate (source animal id): 331 | ≤ 0.25
isolate (source animal id): 333 | ≤ 0.25
isolate (source animal id): 336 | ≤ 0.25
isolate (source animal id): 337 | ≤ 0.25
isolate (source animal id): 339 | ≤ 0.25
isolate (source animal id): 340 | ≤ 0.25
isolate (source animal id): 341 | ≤ 0.25

CCC[C@@H]1C[C@@H](C(=O)N[C@@H]([C@H]2O[C@H](SC)[C@H](O)[C@@H](O)[C@H]2O)[C@H](C)Cl)N(C)C1 [Clindamycin]
Conditions | minimum inhibitory concentration [µg/mL]
isolate (source animal id): 30 | > 16
isolate (source animal id): 34 | > 16
isolate (source animal id): 36 | > 16
isolate (source animal id): 37 | > 16
isolate (source animal id): 46 | > 16
isolate (source animal id): 48 | > 16
isolate (source animal id): 49 | > 16
isolate (source animal id): 54 | > 16
isolate (source animal id): 55 | > 16
isolate (source animal id): 58 | > 16
isolate (source animal id): 60 | > 16
isolate (source animal id): 61 | > 16
isolate (source animal id): 63 | > 16
isolate (source animal id): 64 | > 16
isolate (source animal id): 65 | > 16
isolate (source animal id): 66 | > 16
isolate (source animal id): 67 | > 16
isolate (source animal id): 69 | > 16
isolate (source animal id): 73 | > 16
isolate (source animal id): 75 | > 16
isolate (source animal id): 76 | > 16
isolate (source animal id): 77 | > 16
isolate (source animal id): 78 | > 16
isolate (source animal id): 80 | > 16
isolate (source animal id): 82 | > 16
isolate (source animal id): 83 | > 16
isolate (source animal id): 88 | > 16
isolate (source animal id): 92 | > 16
isolate (source animal id): 94 | > 16
isolate (source animal id): 318 | > 16
isolate (source animal id): 319 | > 16
isolate (source animal id): 320 | > 16
isolate (source animal id): 321 | > 16
isolate (source animal id): 322 | > 16
isolate (source animal id): 324 | > 16
isolate (source animal id): 325 | > 16
isolate (source animal id): 328 | > 16
isolate (source animal id): 330 | > 16
isolate (source animal id): 331 | > 16
isolate (source animal id): 333 | > 16
isolate (source animal id): 336 | > 16
isolate (source animal id): 337 | > 16
isolate (source animal id): 339 | > 16
isolate (source animal id): 340 | > 16
isolate (source animal id): 341 | > 16

CN1C[C@@H]2C[C@H]1CN2c1cc2c(cc1F)c(=O)c(C(=O)O)cn2C1CC1 [Danofloxacin]
Conditions | minimum inhibitory concentration [µg/mL]
isolate (source animal id): 30 | 1 (≈ 2.8 µM)
isolate (source animal id): 34 | > 1
isolate (source animal id): 36 | > 1
isolate (source animal id): 37 | > 1
isolate (source animal id): 46 | ≤ 0.12
isolate (source animal id): 48 | > 1
isolate (source animal id): 49 | > 1
isolate (source animal id): 54 | > 1
isolate (source animal id): 55 | > 1
isolate (source animal id): 58 | > 1
isolate (source animal id): 60 | > 1
isolate (source animal id): 61 | > 1
isolate (source animal id): 63 | > 1
isolate (source animal id): 64 | > 1
isolate (source animal id): 65 | > 1
isolate (source animal id): 66 | > 1
isolate (source animal id): 67 | > 1
isolate (source animal id): 69 | > 1
isolate (source animal id): 73 | 1 (≈ 2.8 µM)
isolate (source animal id): 75 | > 1
isolate (source animal id): 76 | > 1
isolate (source animal id): 77 | 1 (≈ 2.8 µM)
isolate (source animal id): 78 | > 1
isolate (source animal id): 80 | > 1
isolate (source animal id): 82 | > 1
isolate (source animal id): 83 | > 1
isolate (source animal id): 88 | ≤ 0.12
isolate (source animal id): 92 | 1 (≈ 2.8 µM)
isolate (source animal id): 94 | > 1
isolate (source animal id): 318 | ≤ 0.12
isolate (source animal id): 319 | ≤ 0.12
isolate (source animal id): 320 | > 1
isolate (source animal id): 321 | > 1
isolate (source animal id): 322 | > 1
isolate (source animal id): 324 | > 1
isolate (source animal id): 325 | > 1
isolate (source animal id): 328 | > 1
isolate (source animal id): 330 | > 1
isolate (source animal id): 331 | ≤ 0.12
isolate (source animal id): 333 | ≤ 0.12
isolate (source animal id): 336 | > 1
isolate (source animal id): 337 | > 1
isolate (source animal id): 339 | > 1
isolate (source animal id): 340 | ≤ 0.12
isolate (source animal id): 341 | ≤ 0.12
